These are yes or no findings as the source states them, for the method shown. Binding can be weak; no strength is given.
Biological target: T1, NRF2 (human (endogenous in DU-145)) (UniProt Q16236)
T1 sequence: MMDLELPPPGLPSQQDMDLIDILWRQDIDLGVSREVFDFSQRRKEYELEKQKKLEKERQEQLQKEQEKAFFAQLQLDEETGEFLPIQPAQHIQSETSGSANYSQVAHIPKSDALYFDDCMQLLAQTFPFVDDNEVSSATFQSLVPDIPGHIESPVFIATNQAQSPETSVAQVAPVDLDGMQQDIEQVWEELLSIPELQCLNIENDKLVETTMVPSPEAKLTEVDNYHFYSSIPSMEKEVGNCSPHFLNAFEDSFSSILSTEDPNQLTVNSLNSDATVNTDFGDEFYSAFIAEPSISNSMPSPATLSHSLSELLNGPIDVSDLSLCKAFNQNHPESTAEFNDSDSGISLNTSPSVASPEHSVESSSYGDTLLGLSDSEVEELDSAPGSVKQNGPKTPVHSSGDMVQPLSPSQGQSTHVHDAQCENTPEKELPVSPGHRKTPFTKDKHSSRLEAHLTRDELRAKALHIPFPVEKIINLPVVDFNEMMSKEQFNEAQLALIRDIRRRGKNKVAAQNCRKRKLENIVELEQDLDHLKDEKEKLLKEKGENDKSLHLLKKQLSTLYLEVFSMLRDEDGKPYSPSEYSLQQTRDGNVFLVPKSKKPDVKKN
Test: re-ChIP (sequential chromatin immunoprecipitation); formaldehyde cross-linked soluble chromatin precipitated with a first antibody (anti-MUC1-C or anti-NRF2), then reprecipitated with a second antibody or control IgG; read out by qPCR of promoter or intron regions (PBRM1, ARID2, BRD7, SLC7A11, G6PD); DU-145 and LNCaP-AI cells

binding: binds
Substance: MUC1-C
